Test results published in article PMC8558332.
For at least one entry, the source does not settle the construct or the ends of the probe. For some of these results: Negatives hold for the conditions tested. For some of these results: The comparison behind a weaker result is the experiment's own reference, which may not be listed here. For some of these results: At least one verdict was read from the data and is not stated in words by the source.

Experiments:
[1] = system: MdABI5 (Malus domestica); experiment: competition with a labelled probe; details: unlabeled mutant competitor against labeled N1; EMSA as described by Xie et al. (ref. 34); pH and temperature not stated; recombinant protein; label: unlabeled competitor
[2] = system: MdABI5 (Malus domestica); experiment: EMSA; details: EMSA as described by Xie et al. (ref. 34), pH and temperature not stated, recombinant protein, label: 3'-biotin
[3] = only MdNRT1.5 complex strongly detected

Sequence	binding result [2, 3]	further results
ACTCAGCCAGACAAATTGACAAACCACAATATTGGATC (double strand) [MdNRT1.5 promoter mutant probe (CACGTA to ACAAAC)]	–	binding result [1]: no binding
ACTCAGCCAGACAAATTGCACGTACACAATATTGGATC (double strand) [MdNRT1.5 promoter ABRE probe]	–	binding result ([2]; complex decreases with increasing unlabeled wild-type competitor): binds
GTTTCACCTACTCCCCACACGTTCTATCTCTCCCCC (double strand) [MdNRT1.2 promoter probe]	binds more weakly	–
TATCAAAAGGTCCTTTTCACGTGGGAATCAAATAGCAT (double strand) [MdNRT1.8 promoter probe]	binds more weakly	–
TCGTTTCTGCCAGGTGTTGACACGTGTCCTATTTGATGA (double strand) [MdNRT1.9 promoter probe 1]	binds more weakly	–
TTTCGTTGAGTCACACGCTACGTGTAAAATTTATGTAA (double strand) [MdNRT1.9 promoter probe 2]	binds more weakly	–
TTTGCCACGTGGCACAAATTTGGCTACCACGTCAACTC (double strand) [MdNRT2.4 promoter probe]	binds more weakly	–
